Measurements reported in PubChem BioAssay AID1259308 (NCATS, 2017).
Screen: 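Knock-downs that increase output of a recombinant reporter protein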 (primary screen). Cell system: human HEK293 embryonic kidney cells stably expressing firefly luciferase (HEK-CMV-Luc2-Hygro). Reagents: single siRNA against human genes, 0.8 pmol siRNA per well. Duration: 72 h. Read-out: 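Luciferase light (ONE-Glo) measured on one replicate plate set and viability (CellTiter-Glo) on the other, scaled to a negative control siRNA, with robust z-scores and luciferase per cell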. Reading the numbers: total luciferase, z-score and total luciferase, % of control: higher = more reporter protein produced; luciferase per cell, z-score: higher = more reporter output per viable cell; viable cells, % of control: higher = more viable cells. Active means: 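Active when the median/MAD z-score for overall luciferase is greater than 3; a gene was taken forward for validation with new siRNAs if at least two of its three siRNAs passed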. Meaning of the calls: active = raised luciferase; inactive = no rise.
In all, the deposit lists about 59,000 reagents; this is a part drawn at random. Of all reagents, about 1,510 (2.6%) are marked active. 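Calls use total luciferase alone and ignore viability, so some active siRNAs may act by altering cell number.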 Unmarked entries are inactive. Reagents against one gene are numbered here.

Target gene,siRNA no.,"total luciferase, z-score","total luciferase, % of control","luciferase per cell, z-score","viable cells, % of control"
AK2 (adenylate kinase 2),1,-0.442,73.1,0.677,68.4
AK2 (adenylate kinase 2),2,0.298,87.8,0.168,93.9
AK2 (adenylate kinase 2),3,0.309,88,1.15,72.7
"LAMTOR2 (late endosomal/lysosomal adaptor, MAPK and MTOR activator 2)",1,0.108,84,-0.313,102
"LAMTOR2 (late endosomal/lysosomal adaptor, MAPK and MTOR activator 2)",2,-0.735,67.3,-1.05,99.1
"LAMTOR2 (late endosomal/lysosomal adaptor, MAPK and MTOR activator 2)",3,0.527,92.4,0.501,90.5
TBX5-AS1 (TBX5 antisense RNA 1),1,-1.98,42.5,-2.69,96.4
TBX5-AS1 (TBX5 antisense RNA 1),2,0.173,85.3,0.23,89.7
TBX5-AS1 (TBX5 antisense RNA 1),3,-1.37,54.6,-0.658,72.5
TTC12 (tetratricopeptide repeat domain 12),1,0.333,88.5,-0.373,109
TTC12 (tetratricopeptide repeat domain 12),2,0.137,84.6,-0.39,105
TTC12 (tetratricopeptide repeat domain 12),3,0.0558,83,0.0158,92.4
"GIMAP8 (GTPase, IMAP family member 8)",1,0.168,85.2,0.575,81.9
"GIMAP8 (GTPase, IMAP family member 8)",2,0.0687,83.3,0.0288,92.3
"GIMAP8 (GTPase, IMAP family member 8)",3,-0.969,62.6,-0.906,88.8
TNFSF9 (TNF superfamily member 9),1,-0.711,67.7,0.371,68.7
TNFSF9 (TNF superfamily member 9),2,0.127,84.4,0.128,91.2
TNFSF9 (TNF superfamily member 9),3,-0.387,74.2,0.19,78.9

Part of the list above in another layout:
Target gene	siRNA no.	total luciferase, z-score	total luciferase, % of control	luciferase per cell, z-score	viable cells, % of control
TBX5-AS1 (TBX5 antisense RNA 1)	2	0.173	85.3	0.23	89.7
TBX5-AS1 (TBX5 antisense RNA 1)	3	-1.37	54.6	-0.658	72.5
TTC12 (tetratricopeptide repeat domain 12)	1	0.333	88.5	-0.373	109

Continued.
Target gene,siRNA no.,"total luciferase, z-score","total luciferase, % of control","luciferase per cell, z-score","viable cells, % of control"
PRPH2 (peripherin 2),1,3.16 (active),145,3.19,69.9
PRPH2 (peripherin 2),2,-0.943,63.1,-0.765,86.3
PRPH2 (peripherin 2),3,-0.546,71,-1.32,112
ZMAT4 (zinc finger matrin-type 4),1,-0.586,70.2,-0.276,84.4
ZMAT4 (zinc finger matrin-type 4),2,0.864,99.1,0.349,101
ZMAT4 (zinc finger matrin-type 4),3,-0.821,65.6,-1.17,99.6
CDH13 (cadherin 13),1,-1.5,52.1,-0.914,74
CDH13 (cadherin 13),2,-0.646,69,-0.508,88.2
CDH13 (cadherin 13),3,0.524,92.3,0.663,86.6
KCNE3,1,1.18,105,0.932,92.1
KCNE3,2,1.22,106,0.502,104
KCNE3,3,1.54,113,0.621,107
TNPO1 (transportin 1),1,1.51,112,0.812,101
TNPO1 (transportin 1),2,-0.71,67.8,-1.5,112
TNPO1 (transportin 1),3,-0.269,76.5,-1.18,117
TAF15 (TATA-box binding protein associated factor 15),1,0.727,96.3,0.578,92.5
TAF15 (TATA-box binding protein associated factor 15),2,0.238,86.6,-0.0154,97.2
TAF15 (TATA-box binding protein associated factor 15),3,-0.0119,81.6,-0.55,105
S100A8 (S100 calcium binding protein A8),1,2.09,124,2.55,70.5
S100A8 (S100 calcium binding protein A8),2,1.31,108,0.259,113
S100A8 (S100 calcium binding protein A8),3,0.154,85,1.28,67.8
